No constants are given. Whether binding was seen depends on the method and setting. In cells and extracts the contact can be indirect. Tags and fused reporters may be left off the sequences shown.
Key:
GST-RIM1_(1-399) = target: T1, GST-RIM1_(1-399) (UniProt Q9JIR4); experiment: pull-down; GST fusion proteins immobilized on glutathione beads, incubated with solubilized brain proteins in the presence of GTP-γS; immunoblot; only the target purified
T1 sequence: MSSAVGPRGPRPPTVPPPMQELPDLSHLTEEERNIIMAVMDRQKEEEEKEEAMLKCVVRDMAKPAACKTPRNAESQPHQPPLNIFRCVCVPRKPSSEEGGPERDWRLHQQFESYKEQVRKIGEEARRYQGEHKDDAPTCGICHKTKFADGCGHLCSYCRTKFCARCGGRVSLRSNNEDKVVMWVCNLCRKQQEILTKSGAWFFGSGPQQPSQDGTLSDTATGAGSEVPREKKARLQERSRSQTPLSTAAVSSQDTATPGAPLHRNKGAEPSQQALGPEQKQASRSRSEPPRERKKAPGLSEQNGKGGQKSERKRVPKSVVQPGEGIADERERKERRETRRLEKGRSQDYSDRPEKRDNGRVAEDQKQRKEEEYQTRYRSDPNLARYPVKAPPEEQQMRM

GST-RIM1_(1-55) = target: T2, GST-RIM1_(1-55) (UniProt Q9JIR4); experiment: as above
T2 sequence: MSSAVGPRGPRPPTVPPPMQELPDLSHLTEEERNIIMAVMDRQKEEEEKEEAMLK

binding (GST-RIM1_(1-399)): no binding
binding (GST-RIM1_(1-55)): no binding
Substance: Rab5

— publication PMC5995852
